# ± gives the standard deviation of the averaged measurements. The entries are a selection whose mix differs from that of the whole data set.
# The chains behind the UniProt entries cited, without tags or fusion partners. Where a name states a change or a piece, a line headed by the entry shows the natural chain unless it says otherwise.
# UniProt O75251, whole entry: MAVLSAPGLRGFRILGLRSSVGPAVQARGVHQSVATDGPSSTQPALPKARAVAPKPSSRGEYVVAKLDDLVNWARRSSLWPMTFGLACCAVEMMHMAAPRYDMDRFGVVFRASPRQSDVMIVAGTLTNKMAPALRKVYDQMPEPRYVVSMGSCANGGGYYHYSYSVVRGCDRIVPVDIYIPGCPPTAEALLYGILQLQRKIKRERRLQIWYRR
# UniProt Q9UKV3: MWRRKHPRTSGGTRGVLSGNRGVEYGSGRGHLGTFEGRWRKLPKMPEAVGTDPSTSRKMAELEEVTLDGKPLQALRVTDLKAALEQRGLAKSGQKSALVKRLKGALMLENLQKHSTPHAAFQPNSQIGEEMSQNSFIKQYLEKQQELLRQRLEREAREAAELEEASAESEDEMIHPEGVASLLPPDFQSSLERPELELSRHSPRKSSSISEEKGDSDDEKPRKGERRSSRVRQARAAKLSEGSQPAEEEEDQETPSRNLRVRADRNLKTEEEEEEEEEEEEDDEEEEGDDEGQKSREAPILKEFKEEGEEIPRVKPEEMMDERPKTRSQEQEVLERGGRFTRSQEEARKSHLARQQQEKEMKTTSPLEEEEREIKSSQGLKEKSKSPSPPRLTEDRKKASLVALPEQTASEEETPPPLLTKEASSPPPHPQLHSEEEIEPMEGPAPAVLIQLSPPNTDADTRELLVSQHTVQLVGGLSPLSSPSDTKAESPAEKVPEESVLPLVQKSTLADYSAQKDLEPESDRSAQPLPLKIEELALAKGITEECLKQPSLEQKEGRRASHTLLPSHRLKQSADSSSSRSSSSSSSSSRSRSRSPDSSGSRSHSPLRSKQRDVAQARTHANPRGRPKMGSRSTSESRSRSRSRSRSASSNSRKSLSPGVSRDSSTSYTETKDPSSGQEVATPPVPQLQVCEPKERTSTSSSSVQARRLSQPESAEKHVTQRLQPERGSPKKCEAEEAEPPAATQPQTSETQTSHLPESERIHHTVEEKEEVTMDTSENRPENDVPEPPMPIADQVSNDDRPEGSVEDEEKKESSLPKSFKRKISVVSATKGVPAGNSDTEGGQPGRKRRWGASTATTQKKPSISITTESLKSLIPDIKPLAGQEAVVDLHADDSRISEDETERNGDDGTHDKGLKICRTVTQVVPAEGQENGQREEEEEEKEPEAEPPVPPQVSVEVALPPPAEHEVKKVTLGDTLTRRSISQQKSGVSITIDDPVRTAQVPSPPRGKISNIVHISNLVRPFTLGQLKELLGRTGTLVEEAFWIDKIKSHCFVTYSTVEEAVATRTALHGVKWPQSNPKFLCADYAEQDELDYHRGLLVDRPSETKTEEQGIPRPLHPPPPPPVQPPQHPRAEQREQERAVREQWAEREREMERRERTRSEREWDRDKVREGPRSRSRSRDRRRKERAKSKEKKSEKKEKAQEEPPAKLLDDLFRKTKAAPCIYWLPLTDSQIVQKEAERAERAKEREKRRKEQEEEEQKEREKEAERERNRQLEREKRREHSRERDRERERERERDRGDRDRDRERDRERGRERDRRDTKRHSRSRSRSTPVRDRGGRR
# UniProt P62873, whole entry: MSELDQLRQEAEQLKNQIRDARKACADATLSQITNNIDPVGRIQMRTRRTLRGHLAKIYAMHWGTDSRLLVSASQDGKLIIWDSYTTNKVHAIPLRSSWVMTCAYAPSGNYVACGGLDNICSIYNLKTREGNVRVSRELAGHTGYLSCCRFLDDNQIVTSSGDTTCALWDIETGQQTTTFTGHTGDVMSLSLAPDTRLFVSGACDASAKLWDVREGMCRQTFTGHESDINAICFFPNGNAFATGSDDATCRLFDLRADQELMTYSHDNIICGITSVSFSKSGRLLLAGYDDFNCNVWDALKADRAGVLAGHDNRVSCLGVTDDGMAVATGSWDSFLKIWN
# UniProt Q13435: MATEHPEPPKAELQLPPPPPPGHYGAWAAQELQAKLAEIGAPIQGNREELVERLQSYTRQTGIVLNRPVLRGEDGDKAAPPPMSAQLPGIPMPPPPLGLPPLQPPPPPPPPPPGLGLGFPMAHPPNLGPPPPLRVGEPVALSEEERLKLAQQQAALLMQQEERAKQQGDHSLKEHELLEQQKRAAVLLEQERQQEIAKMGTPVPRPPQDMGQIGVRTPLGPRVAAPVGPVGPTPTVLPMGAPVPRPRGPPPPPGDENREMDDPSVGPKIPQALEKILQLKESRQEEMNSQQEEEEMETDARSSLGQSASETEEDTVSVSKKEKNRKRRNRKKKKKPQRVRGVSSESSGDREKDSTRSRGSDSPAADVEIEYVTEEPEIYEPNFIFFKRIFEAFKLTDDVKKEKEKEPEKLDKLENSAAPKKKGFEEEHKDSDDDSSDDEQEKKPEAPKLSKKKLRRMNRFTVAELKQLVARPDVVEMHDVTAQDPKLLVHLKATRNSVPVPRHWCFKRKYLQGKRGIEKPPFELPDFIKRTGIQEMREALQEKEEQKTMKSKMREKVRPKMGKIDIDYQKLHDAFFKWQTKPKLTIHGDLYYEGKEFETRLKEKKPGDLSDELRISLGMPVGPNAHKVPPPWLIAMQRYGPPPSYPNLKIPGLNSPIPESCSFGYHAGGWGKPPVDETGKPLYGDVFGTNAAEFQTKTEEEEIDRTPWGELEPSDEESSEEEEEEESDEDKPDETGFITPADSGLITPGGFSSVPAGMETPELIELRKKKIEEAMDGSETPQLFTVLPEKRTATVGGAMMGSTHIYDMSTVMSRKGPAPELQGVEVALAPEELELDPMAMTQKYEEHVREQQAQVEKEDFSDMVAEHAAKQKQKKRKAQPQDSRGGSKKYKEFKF
# UniProt Q14493, whole entry, looked up: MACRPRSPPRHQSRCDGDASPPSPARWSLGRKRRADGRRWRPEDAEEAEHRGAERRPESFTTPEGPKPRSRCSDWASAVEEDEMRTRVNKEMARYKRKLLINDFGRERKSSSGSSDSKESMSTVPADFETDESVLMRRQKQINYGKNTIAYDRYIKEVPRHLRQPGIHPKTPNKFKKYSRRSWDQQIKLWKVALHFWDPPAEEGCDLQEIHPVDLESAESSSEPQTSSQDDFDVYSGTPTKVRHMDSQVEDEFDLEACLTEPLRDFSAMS
# UniProt P0DJD1, whole entry, looked up: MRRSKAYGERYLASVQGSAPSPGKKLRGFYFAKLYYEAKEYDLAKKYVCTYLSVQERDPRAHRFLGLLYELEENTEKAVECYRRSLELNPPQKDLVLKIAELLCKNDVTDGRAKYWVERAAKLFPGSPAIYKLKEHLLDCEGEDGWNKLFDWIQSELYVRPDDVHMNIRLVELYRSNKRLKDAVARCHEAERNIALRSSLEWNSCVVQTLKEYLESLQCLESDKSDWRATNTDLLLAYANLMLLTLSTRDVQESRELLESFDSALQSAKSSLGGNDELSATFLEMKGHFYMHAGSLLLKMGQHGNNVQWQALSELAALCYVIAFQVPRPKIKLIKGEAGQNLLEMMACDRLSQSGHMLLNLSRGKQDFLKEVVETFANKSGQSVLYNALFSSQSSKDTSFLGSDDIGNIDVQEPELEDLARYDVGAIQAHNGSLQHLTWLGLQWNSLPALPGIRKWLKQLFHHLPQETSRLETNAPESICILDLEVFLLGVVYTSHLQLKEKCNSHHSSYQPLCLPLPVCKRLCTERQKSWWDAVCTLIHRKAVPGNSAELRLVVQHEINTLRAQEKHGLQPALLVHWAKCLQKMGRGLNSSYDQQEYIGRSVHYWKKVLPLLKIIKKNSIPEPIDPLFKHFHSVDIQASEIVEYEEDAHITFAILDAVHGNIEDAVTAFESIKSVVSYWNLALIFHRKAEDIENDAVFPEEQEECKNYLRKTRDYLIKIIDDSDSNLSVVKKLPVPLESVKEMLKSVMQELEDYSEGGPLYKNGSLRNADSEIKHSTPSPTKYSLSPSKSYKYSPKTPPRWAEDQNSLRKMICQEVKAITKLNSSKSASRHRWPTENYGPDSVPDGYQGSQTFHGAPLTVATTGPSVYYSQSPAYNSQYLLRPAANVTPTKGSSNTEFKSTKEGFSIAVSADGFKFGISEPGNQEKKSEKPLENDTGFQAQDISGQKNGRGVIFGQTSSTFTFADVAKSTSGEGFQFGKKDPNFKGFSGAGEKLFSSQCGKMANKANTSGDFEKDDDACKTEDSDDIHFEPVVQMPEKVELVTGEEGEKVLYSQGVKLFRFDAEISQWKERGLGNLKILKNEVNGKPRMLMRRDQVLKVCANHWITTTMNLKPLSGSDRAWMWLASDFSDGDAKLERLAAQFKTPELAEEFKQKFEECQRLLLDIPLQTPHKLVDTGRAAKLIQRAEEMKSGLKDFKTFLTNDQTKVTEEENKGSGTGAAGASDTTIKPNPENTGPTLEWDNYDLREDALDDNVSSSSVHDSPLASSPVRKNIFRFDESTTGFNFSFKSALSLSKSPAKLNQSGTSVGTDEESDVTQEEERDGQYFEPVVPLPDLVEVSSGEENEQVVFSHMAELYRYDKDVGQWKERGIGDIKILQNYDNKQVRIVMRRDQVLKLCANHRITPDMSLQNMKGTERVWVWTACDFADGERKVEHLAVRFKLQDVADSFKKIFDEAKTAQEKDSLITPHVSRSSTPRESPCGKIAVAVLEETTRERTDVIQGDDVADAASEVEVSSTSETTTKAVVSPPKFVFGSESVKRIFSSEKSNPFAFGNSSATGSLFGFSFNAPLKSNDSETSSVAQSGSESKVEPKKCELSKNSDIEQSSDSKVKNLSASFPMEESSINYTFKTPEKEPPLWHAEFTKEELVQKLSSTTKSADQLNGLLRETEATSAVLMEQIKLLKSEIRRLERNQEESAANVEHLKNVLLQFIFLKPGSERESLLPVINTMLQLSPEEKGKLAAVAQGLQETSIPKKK
# UniProt P0DJD0, whole entry, looked up: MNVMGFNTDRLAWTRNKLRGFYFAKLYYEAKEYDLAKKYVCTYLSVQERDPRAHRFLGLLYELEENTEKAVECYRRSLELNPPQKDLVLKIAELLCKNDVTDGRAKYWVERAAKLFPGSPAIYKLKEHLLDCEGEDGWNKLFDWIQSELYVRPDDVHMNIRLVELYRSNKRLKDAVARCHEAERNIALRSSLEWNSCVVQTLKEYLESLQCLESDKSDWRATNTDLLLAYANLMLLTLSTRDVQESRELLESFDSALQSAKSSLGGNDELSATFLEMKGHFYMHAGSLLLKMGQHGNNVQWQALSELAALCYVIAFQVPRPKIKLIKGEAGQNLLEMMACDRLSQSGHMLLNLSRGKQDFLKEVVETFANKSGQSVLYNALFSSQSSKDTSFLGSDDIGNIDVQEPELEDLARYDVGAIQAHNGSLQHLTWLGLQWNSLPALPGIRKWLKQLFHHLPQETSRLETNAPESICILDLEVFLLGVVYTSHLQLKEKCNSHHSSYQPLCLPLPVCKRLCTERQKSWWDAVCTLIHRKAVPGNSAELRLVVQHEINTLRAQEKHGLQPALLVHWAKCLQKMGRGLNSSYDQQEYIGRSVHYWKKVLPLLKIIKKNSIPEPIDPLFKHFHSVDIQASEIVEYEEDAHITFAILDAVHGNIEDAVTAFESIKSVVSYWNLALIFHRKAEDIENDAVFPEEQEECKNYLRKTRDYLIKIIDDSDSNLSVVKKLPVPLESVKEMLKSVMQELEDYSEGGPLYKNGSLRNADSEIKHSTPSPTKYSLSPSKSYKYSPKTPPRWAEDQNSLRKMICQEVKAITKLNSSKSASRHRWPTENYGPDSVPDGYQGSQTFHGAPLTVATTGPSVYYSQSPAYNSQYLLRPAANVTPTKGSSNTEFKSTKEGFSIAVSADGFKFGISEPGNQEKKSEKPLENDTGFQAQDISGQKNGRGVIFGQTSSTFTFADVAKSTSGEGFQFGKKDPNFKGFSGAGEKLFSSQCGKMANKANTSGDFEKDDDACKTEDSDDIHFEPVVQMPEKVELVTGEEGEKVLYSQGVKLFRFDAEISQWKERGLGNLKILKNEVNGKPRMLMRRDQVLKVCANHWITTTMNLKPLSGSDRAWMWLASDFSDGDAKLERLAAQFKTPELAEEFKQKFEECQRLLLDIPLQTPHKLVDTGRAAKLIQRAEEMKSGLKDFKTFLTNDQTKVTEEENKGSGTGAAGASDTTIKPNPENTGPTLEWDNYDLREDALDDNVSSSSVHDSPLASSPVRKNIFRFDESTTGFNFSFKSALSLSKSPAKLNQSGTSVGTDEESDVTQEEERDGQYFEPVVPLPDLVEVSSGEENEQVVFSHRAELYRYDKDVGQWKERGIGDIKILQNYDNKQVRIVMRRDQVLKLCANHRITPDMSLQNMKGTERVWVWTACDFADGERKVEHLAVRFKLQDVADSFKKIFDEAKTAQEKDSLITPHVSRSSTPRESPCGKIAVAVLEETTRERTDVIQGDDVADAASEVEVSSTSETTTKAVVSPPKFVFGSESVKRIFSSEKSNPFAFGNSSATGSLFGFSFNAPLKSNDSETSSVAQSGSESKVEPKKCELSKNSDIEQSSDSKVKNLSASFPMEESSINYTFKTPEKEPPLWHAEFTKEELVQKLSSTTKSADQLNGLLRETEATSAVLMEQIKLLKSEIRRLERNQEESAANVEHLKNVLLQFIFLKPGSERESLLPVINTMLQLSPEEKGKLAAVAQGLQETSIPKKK
# Compound: Nc1ncnc2c1ncn2[C@@H]1O[C@H](COP(=O)(O)OP(=O)(O)OP(=O)(O)O)[C@@H](O)[C@H]1O [adenosine triphosphate]
# Test: NP40-soluble protein abundance relative to vehicle (solubility fold change) (ratio); higher = more soluble protein in presence of ATP
# How it was run: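 Eight concentrations, 0.1 to 10 mM, were tested on Jurkat crude lysate for 10 min at room temperature and then 3 min at 37 °C, in three independent experiments. The lysate was solubilised with 0.8% NP40 and benzonase, ultracentrifuged, and the supernatant TMT-labelled for LC-MS/MS. Each value is the fold change against the detergent-processed vehicle in its own replicate, from vsn-normalised intensities.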
target,measurement,setting,value
F5GXJ1 and related entries (UniProt O75251),NP40-soluble protein abundance,concentration: 1mM,0.945 ± 0.091
same,NP40-soluble protein abundance,concentration: 2mM,0.917 ± 0.08
same,NP40-soluble protein abundance,concentration: 4mM,0.891 ± 0.05
same,NP40-soluble protein abundance,concentration: 6mM,0.839 ± 0.034
same,NP40-soluble protein abundance,concentration: 8mM,0.909 ± 0.1
same,NP40-soluble protein abundance,concentration: 10mM,0.92 ± 0.085
E9PBS1 and related entries (UniProt P22234),NP40-soluble protein abundance,concentration: 1mM,0.963 ± 0.036
same,NP40-soluble protein abundance,concentration: 2mM,0.92 ± 0.036
same,NP40-soluble protein abundance,concentration: 4mM,0.884 ± 0.052
same,NP40-soluble protein abundance,concentration: 6mM,0.936 ± 0.033
same,NP40-soluble protein abundance,concentration: 8mM,0.954 ± 0.058
same,NP40-soluble protein abundance,concentration: 10mM,0.932 ± 0.044
UniProt F5H5P2,NP40-soluble protein abundance,concentration: 1mM,1.01 ± 0.011
same,NP40-soluble protein abundance,concentration: 2mM,0.99 ± 0.018
same,NP40-soluble protein abundance,concentration: 4mM,1.03 ± 0.034
same,NP40-soluble protein abundance,concentration: 6mM,1.02 ± 0.048
same,NP40-soluble protein abundance,concentration: 8mM,1.07 ± 0.05
same,NP40-soluble protein abundance,concentration: 10mM,1.06 ± 0.032
F5H702 and related entries (UniProt Q96GC5),NP40-soluble protein abundance,concentration: 1mM,1.07 ± 0.078
same,NP40-soluble protein abundance,concentration: 2mM,0.99 ± 0.08
same,NP40-soluble protein abundance,concentration: 4mM,0.962 ± 0.12
same,NP40-soluble protein abundance,concentration: 6mM,1.01 ± 0.2
same,NP40-soluble protein abundance,concentration: 8mM,1.01 ± 0.17
same,NP40-soluble protein abundance,concentration: 10mM,1 ± 0.14
E7EQT4 and related entries (UniProt Q9UKV3),NP40-soluble protein abundance,concentration: 1mM,1.03 ± 0.079
same,NP40-soluble protein abundance,concentration: 2mM,1.01 ± 0.072
same,NP40-soluble protein abundance,concentration: 4mM,0.999 ± 0.076
same,NP40-soluble protein abundance,concentration: 6mM,1.04 ± 0.11
same,NP40-soluble protein abundance,concentration: 8mM,0.946 ± 0.072
same,NP40-soluble protein abundance,concentration: 10mM,1.01 ± 0.062
E7EPJ9 and related entries (UniProt P05120),NP40-soluble protein abundance,concentration: 1mM,0.927 ± 0.04
same,NP40-soluble protein abundance,concentration: 2mM,0.986 ± 0.076
same,NP40-soluble protein abundance,concentration: 4mM,0.936 ± 0.016
same,NP40-soluble protein abundance,concentration: 6mM,0.997 ± 0.056
same,NP40-soluble protein abundance,concentration: 8mM,0.95 ± 0.068
same,NP40-soluble protein abundance,concentration: 10mM,0.934 ± 0.016
E7ETU7 and related entries (UniProt P09001),NP40-soluble protein abundance,concentration: 1mM,1.07 ± 0.033
same,NP40-soluble protein abundance,concentration: 2mM,0.908 ± 0.082
same,NP40-soluble protein abundance,concentration: 4mM,0.904 ± 0.13
same,NP40-soluble protein abundance,concentration: 6mM,0.873 ± 0.26
same,NP40-soluble protein abundance,concentration: 8mM,0.896 ± 0.18
same,NP40-soluble protein abundance,concentration: 10mM,0.855 ± 0.16
E7EX90 and related entries (UniProt Q14203),NP40-soluble protein abundance,concentration: 1mM,0.974 ± 0.026
same,NP40-soluble protein abundance,concentration: 2mM,0.926 ± 0.033
same,NP40-soluble protein abundance,concentration: 4mM,0.901 ± 0.04
same,NP40-soluble protein abundance,concentration: 6mM,0.953 ± 0.13
same,NP40-soluble protein abundance,concentration: 8mM,0.929 ± 0.059
same,NP40-soluble protein abundance,concentration: 10mM,0.934 ± 0.061
F6X3N5 and related entries (UniProt P62873),NP40-soluble protein abundance,concentration: 1mM,1 ± 0.03
same,NP40-soluble protein abundance,concentration: 2mM,0.959 ± 0.05
same,NP40-soluble protein abundance,concentration: 4mM,0.95 ± 0.014
same,NP40-soluble protein abundance,concentration: 6mM,0.958 ± 0.049
same,NP40-soluble protein abundance,concentration: 8mM,0.9465 ± 0.0079
same,NP40-soluble protein abundance,concentration: 10mM,0.955 ± 0.015
E9PJ04 and related entries (UniProt Q13435),NP40-soluble protein abundance,concentration: 1mM,1.05 ± 0.075
same,NP40-soluble protein abundance,concentration: 2mM,1.04 ± 0.054
same,NP40-soluble protein abundance,concentration: 4mM,1.05 ± 0.068
same,NP40-soluble protein abundance,concentration: 6mM,1.15 ± 0.098
same,NP40-soluble protein abundance,concentration: 8mM,1.09 ± 0.054
same,NP40-soluble protein abundance,concentration: 10mM,1.1 ± 0.053
F8W6G1 and related entries (UniProt Q9UHY1),NP40-soluble protein abundance,concentration: 1mM,0.928 ± 0.04
same,NP40-soluble protein abundance,concentration: 2mM,0.958 ± 0.023
same,NP40-soluble protein abundance,concentration: 4mM,0.9836 ± 0.0027
same,NP40-soluble protein abundance,concentration: 6mM,0.9465 ± 0.0031
same,NP40-soluble protein abundance,concentration: 8mM,0.935 ± 0.057
same,NP40-soluble protein abundance,concentration: 10mM,0.959 ± 0.027
F8W8D3 and related entries (UniProt Q14493),NP40-soluble protein abundance,concentration: 1mM,1 ± 0.033
same,NP40-soluble protein abundance,concentration: 2mM,0.9936 ± 0.0089
same,NP40-soluble protein abundance,concentration: 4mM,0.977 ± 0.015
same,NP40-soluble protein abundance,concentration: 6mM,1.02 ± 0.051
same,NP40-soluble protein abundance,concentration: 8mM,0.968 ± 0.068
same,NP40-soluble protein abundance,concentration: 10mM,0.932 ± 0.065
E7EXA6 and related entries (UniProt Q8WVB6),NP40-soluble protein abundance,concentration: 1mM,1.27 ± 0.046
same,NP40-soluble protein abundance,concentration: 2mM,1.25 ± 0.052
same,NP40-soluble protein abundance,concentration: 4mM,1.27 ± 0.056
same,NP40-soluble protein abundance,concentration: 6mM,1.3 ± 0.082
same,NP40-soluble protein abundance,concentration: 8mM,1.29 ± 0.059
same,NP40-soluble protein abundance,concentration: 10mM,1.31 ± 0.079
F8VYC4 and related entries (UniProt P0DJD1+P0DJD0+F8VYC4),NP40-soluble protein abundance,concentration: 1mM,1.01 ± 0.11
same,NP40-soluble protein abundance,concentration: 2mM,0.984 ± 0.036
same,NP40-soluble protein abundance,concentration: 4mM,1.06 ± 0.077
same,NP40-soluble protein abundance,concentration: 6mM,1.05 ± 0.033
same,NP40-soluble protein abundance,concentration: 8mM,1 ± 0.051
same,NP40-soluble protein abundance,concentration: 10mM,1.06 ± 0.04
G3XA86 and related entries (UniProt Q9Y2Z9),NP40-soluble protein abundance,concentration: 1mM,0.963 ± 0.051
same,NP40-soluble protein abundance,concentration: 2mM,1.04 ± 0.067
same,NP40-soluble protein abundance,concentration: 4mM,1.05 ± 0.093
same,NP40-soluble protein abundance,concentration: 6mM,0.951 ± 0.038
same,NP40-soluble protein abundance,concentration: 8mM,0.95 ± 0.038
same,NP40-soluble protein abundance,concentration: 10mM,1.03 ± 0.13

# Reformatted: entries from further up
target	measurement	setting	value
F8VYC4 and related entries (UniProt P0DJD1+P0DJD0+F8VYC4)	NP40-soluble protein abundance	concentration: 4mM	1.06 ± 0.077
same	NP40-soluble protein abundance	concentration: 6mM	1.05 ± 0.033
same	NP40-soluble protein abundance	concentration: 8mM	1 ± 0.051
same	NP40-soluble protein abundance	concentration: 10mM	1.06 ± 0.04
G3XA86 and related entries (UniProt Q9Y2Z9)	NP40-soluble protein abundance	concentration: 1mM	0.963 ± 0.051

# Retrieved one by one from the entries so far (2):
target,measurement,setting,value
E7ETU7 and related entries (UniProt P09001),NP40-soluble protein abundance,concentration: 6mM,0.873 ± 0.26
F8W6G1 and related entries (UniProt Q9UHY1),NP40-soluble protein abundance,concentration: 6mM,0.9465 ± 0.0031
